Experimental data taken from PMC2700282.
Results are given in words; binding and its absence hold for the method and conditions named. In cells and extracts the contact can be indirect. Some results given as binding are weak or reduced against the parent protein; the word gives no strength.

The chains behind the UniProt entries cited, without tags or fusion partners.
UniProt Q6KC79: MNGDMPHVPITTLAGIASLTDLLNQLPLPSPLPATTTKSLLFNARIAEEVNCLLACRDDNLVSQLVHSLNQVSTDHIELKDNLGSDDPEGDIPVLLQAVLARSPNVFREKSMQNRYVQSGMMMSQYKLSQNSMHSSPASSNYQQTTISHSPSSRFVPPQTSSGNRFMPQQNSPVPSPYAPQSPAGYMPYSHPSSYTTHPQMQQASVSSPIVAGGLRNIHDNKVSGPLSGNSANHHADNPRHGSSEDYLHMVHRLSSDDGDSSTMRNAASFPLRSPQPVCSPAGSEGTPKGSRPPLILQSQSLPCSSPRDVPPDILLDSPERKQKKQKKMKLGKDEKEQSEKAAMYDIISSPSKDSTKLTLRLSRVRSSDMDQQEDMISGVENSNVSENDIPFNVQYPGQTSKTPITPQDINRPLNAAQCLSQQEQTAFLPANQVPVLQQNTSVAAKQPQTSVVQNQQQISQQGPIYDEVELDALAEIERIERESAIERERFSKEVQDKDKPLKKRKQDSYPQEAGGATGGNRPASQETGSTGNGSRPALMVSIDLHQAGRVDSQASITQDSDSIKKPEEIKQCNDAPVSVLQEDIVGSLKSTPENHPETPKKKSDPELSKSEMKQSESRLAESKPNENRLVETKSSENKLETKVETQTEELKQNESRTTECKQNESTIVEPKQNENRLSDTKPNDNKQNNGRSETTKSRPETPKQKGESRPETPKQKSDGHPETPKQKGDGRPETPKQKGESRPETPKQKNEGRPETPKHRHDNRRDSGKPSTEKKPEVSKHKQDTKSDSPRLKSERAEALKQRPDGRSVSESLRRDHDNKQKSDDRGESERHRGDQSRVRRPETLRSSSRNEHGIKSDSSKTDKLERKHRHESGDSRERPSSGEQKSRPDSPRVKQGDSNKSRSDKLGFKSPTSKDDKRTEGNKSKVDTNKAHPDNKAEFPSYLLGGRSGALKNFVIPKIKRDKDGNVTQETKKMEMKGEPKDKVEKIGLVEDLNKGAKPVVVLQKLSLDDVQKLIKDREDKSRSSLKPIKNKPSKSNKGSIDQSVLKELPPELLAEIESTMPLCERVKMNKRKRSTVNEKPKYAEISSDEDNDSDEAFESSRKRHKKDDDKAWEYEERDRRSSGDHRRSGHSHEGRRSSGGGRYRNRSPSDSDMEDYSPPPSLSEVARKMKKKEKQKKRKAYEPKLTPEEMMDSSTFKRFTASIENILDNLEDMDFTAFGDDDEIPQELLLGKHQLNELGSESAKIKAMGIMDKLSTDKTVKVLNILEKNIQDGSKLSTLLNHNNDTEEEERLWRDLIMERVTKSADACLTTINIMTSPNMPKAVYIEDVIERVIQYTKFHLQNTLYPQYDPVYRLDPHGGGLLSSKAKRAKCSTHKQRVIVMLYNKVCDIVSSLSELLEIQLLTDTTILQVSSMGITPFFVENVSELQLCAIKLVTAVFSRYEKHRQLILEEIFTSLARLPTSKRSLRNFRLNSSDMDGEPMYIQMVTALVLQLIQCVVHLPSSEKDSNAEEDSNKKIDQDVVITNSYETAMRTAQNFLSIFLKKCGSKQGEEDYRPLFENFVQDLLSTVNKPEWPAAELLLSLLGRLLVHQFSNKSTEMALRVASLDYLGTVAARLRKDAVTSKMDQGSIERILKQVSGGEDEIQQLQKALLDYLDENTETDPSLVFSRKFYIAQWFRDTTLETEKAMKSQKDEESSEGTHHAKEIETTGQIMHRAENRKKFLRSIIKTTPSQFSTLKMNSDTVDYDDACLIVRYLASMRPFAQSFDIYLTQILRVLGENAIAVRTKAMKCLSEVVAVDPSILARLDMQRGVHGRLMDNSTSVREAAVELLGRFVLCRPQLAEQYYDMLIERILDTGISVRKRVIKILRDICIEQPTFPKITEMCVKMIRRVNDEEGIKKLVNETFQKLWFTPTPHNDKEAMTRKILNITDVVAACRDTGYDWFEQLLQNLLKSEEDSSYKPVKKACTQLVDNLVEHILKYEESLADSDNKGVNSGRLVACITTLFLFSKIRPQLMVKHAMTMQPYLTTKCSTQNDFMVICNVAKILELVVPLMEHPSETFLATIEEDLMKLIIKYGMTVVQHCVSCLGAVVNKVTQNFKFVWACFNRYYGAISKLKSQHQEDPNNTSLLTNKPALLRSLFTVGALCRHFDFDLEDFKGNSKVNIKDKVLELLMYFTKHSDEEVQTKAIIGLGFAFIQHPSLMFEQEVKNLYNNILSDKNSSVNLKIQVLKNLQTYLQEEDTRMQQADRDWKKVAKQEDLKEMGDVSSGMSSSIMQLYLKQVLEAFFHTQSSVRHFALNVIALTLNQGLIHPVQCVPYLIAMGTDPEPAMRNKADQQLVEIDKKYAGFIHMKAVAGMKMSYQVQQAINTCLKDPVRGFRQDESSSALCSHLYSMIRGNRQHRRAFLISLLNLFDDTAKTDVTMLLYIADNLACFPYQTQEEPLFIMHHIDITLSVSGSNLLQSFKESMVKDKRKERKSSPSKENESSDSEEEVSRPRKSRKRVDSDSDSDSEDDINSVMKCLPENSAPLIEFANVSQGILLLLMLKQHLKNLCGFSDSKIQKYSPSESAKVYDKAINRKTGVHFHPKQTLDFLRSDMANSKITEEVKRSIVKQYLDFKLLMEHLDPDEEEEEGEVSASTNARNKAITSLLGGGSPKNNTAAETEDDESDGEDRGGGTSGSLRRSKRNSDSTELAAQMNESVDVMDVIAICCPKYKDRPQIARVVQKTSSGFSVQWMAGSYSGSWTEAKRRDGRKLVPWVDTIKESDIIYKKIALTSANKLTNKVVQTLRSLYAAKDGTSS
UniProt Q13185: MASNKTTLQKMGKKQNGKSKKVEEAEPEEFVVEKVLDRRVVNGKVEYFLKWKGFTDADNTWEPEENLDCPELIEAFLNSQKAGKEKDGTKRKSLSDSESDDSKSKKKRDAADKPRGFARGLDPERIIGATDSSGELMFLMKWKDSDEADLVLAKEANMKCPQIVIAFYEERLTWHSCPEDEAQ

Molecular target: cohesin loading factor Scc2 (human (endogenous in HeLa)) (UniProt Q6KC79)
Assay: co-IP; HeLa nuclear extracts; IP with antibody specific for Scc2 or cohesin (Rad21); washed four times with 0.1 M KCl buffer, eluted with 1.0 M KCl ("wash"), then 2.0 M guanidine-HCl ("eluate"); western blot for HP1γ or CTCF

- binding: binds weakly
Substance: HP1γ (from UniProt Q13185 1-183)
